About 18,000 (4.4%) of roughly 410,000 compounds were called active. The inconclusive results got no clear call from the source; some entries with a clear call stand among them for comparison. Rule as the data show it: active = activity change below about -60%; inconclusive = no clear call, values can overlap the other calls; inactive = above about -39%.
Assay: qHTS Assay for inhibitors of the human cytomegalovirus (HCMV)
Conditions: HFF cells, HCMV-luciferase reporter, 72 h; at 57.5 µM; stronger effect = lower value
Method in brief: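 Two-dose cell screen: HFF monolayers treated with compounds and infected with luciferase-expressing HCMV at 1 PFU/cell, 72 h at 37C, then lysed for luciferase measurement.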
% is scaled to controls: 0 for no effect and ±100 for the full control effect.

Row | SMILES | activity change, negative = inhibition
1 | CCOc1ccc(NC(=NCc2ccc3c(c2)OCO3)SC2CC(=O)N(c3ccc(C(=O)O)cc3)C2=O)cc1 (stereo not drawn) | inconclusive: -57.2%
2 | O=C(Nc1ccc(Br)cc1)c1ccc(F)c(S(=O)(=O)NC2CCCCCC2)c1 | active: -98.4%
3 | Cc1cc(C)n(CC(O)COc2ccc(C(C)(C)C)cc2)n1 (stereo not drawn) | inconclusive: 0%
4 | CC(=O)c1cccc(OCc2cc(C(=O)N(C)CCc3cnn(C)c3)no2)c1 | inconclusive: -50%
5 | Cc1ccc(NC(=O)Cn2c(O)c(N=NC(=O)c3cc4ccccc4cc3O)c3ccccc32)cc1 | active: -101%
6 | CC(C)Sc1cc(N2CCOCC2)nc(-c2ccccc2)n1 | inconclusive: -55.4%
7 | Cc1nn(Cc2cccc(C(=O)Nc3ccn(Cc4c(F)c(F)cc(F)c4F)n3)c2)c(C)c1[N+](=O)[O-] | inactive: -37.8%
8 | CSc1nnc(-c2ccccc2)c(-c2ccccc2)n1 | inconclusive: -43.7%
9 | COC(=O)c1ccc2c(=O)n(C3CCCCC3)c(SCC#N)nc2c1 | inconclusive: -44.8%
10 | CCN(CC1COc2ccccc2O1)C(=S)NCCCN(C)C (stereo not drawn) | inconclusive: -40.3%
11 | O=C(COc1ccc(Cl)cc1)NCc1nnc2c3ccccc3c(-c3ccccc3)nn12 | inconclusive: -55.8%
12 | CC(=NNc1ccc2ccccc2n1)c1ccccc1O | active: -60.8%
13 | O=C(CCn1cnc2onc(-c3ccc(F)cc3)c2c1=O)Nc1ccc(F)c(Cl)c1 | active: -67.3%
14 | COc1ccc(NC(=O)CNC(=O)c2ccc([N+](=O)[O-])cc2)cc1 | inconclusive: -40.7%
15 | Cc1ccc(/C=N/N2C(=S)SC(C)(C)C2N(O)C(=O)Nc2ccc([N+](=O)[O-])cc2)cc1 (stereo not drawn) | inactive: 5.28%
16 | Cc1ccccc1N1CC(C(=O)O)CC1=O (stereo not drawn) | active: -84.9%
17 | O=C(N[C@@H]1C/C=C\C[C@H](CC(=O)N(CCO)Cc2ccccc2)C(=O)N[C@@H](Cc2ccccc2)COC1=O)OCC1c2ccccc2-c2ccccc21 | active: -68.8%
18 | CCCCNC(=S)N/N=C/c1ccc(C#N)cc1 | inconclusive: -41.9%
19 | C#CCn1c(S(=O)(=O)Cc2ccccc2Cl)nc(-c2ccccc2)c1-c1ccccc1 | active: -69.9%
20 | CCOc1ccc(S(=O)(=O)NCc2ccccc2OC)cc1 | inconclusive: -45.6%
21 | CCOC(=O)[C@]12Cc3ccccc3[C@H]1N(Cc1ccccc1)C(=O)c1cc(F)c(F)cc12 | inconclusive: -52.1%
22 | Cc1ccc(Cn2nc(C)c(NC(=O)CSc3nc4c(c(C(F)(F)F)n3)CCc3ccccc3-4)c2C)cc1 | inconclusive: -49.9%
23 | COCCCNCCCOc1ccc(C(C)(C)c2ccccc2)cc1 | inconclusive: -46.6%
24 | CCN(CC)c1cc(C)c2cc(NC(=O)c3cccc(OC)c3OC)ccc2n1 | inconclusive: -48%
25 | CCC(C)[C@H](NC(=O)NCCCn1ccnc1)C(=O)OC (stereo partly drawn) | inconclusive: -49.6%
26 | CCOc1ccc(NCC(=O)Nc2ccc(C)cc2C)cc1 | inconclusive: -46.1%
27 | COc1cc([N+](=O)[O-])ccc1NC(=O)CCS(=O)(=O)c1ccc2c(c1)n(C)c(=O)c(=O)n2C | inconclusive: -41.4%

Row | SMILES | activity change, negative = inhibition
28 | COc1ccccc1/C=C/CN1CCCC(CCC(=O)NCc2ccc(F)c(F)c2)C1 (stereo not drawn) | inconclusive: -56.6%
29 | COc1cccc(-n2c(Cn3nc(C(F)(F)F)cc3C)n[nH]c2=S)c1 | inconclusive: -45.1%
30 | O=C(Nc1nccs1)c1cc(-c2ccncc2)nc2ccccc12 | inactive: 5.44%
31 | COc1ccc(NC(=O)CSc2ncn[nH]2)c([N+](=O)[O-])c1 | inconclusive: -45.2%
32 | Cc1ccc(S(=O)(=O)N/N=C\c2ccc([N+](=O)[O-])o2)cc1 | inconclusive: -47.9%
33 | O=S(=O)(Cc1cc(Cl)nc(-c2ccncc2)n1)c1ccccc1 | active: -65.8%
34 | CN1C(=O)/C(=C/c2ccc(C(F)(F)F)cc2)Sc2ccc(C(=O)N3CCN(c4ccccn4)CC3)cc21 | inconclusive: -45.3%
35 | O=C(CCCn1c(=O)[nH]c2ccsc2c1=O)Nc1ccc(F)cc1 | inconclusive: -44.3%
36 | COc1cccc(C(=O)Nc2ccc(Oc3cccc(C(F)(F)F)c3)nc2)c1 | active: -74.4%
37 | CSc1cccc(NC(=S)N(CCCN2CCCC2)Cc2cccn2Cc2ccc(Cl)cc2)c1 | inconclusive: -49%
38 | CC(C(=O)NC(C)(C)C)N(Cc1cccs1)C(=O)CCN1CCc2ccccc21 (stereo not drawn) | inactive: 3.15%
39 | COc1ccc(/C=C(\NC(=O)c2ccc(C)cc2)C(=O)Nc2c(C)n(C)n(-c3ccccc3)c2=O)cc1 | inactive: -10.1%
40 | Cc1ncc([N+](=O)[O-])n1CC(=O)Nc1ccc(F)c(Cl)c1 | inconclusive: -53.1%
41 | COc1ccc(-n2c(-c3ccc(C)cc3)nc3ccccc3c2=O)cc1 | inconclusive: -42.8%
42 | Cc1cc(Nc2cc(Cl)cc(Cl)c2)cc(=O)n1-c1cc(Cl)cc(Cl)c1 | inconclusive: -48.2%
43 | O=C(Nc1cccc([N+](=O)[O-])c1)N1CCc2ccccc2C1 | active: -65.7%
44 | COc1ccc2cc(Br)ccc2c1CC(=O)NC(C)C | inconclusive: -41.5%
45 | Cc1ccccc1NC(=O)CSC1=C(C#N)C(c2ccsc2)CC(=O)N1 (stereo not drawn) | active: -62.3%
46 | CCN(CC)CCOc1c(C)cccc1Cl | inactive: -33.4%
47 | COC(=O)c1cccc(NC(=O)Cn2cnc3c2c(=O)n(C)c(=O)n3C)c1 | inconclusive: -46.8%
48 | Cc1ccc(C2(C)NC(=O)N(CC(=O)Nc3ccc4c(c3)CCC4)C2=O)cc1 (stereo not drawn) | inconclusive: 0%
49 | CCC(=O)N1c2ccc(S(=O)(=O)NCc3ccccc3)cc2CC1C (stereo not drawn) | inconclusive: -45.9%
50 | CCOc1cccc2cc(-c3nnc(NCc4ccc5c(c4)OCO5)s3)c(=O)oc12 | inconclusive: -43%
51 | O=C(COC(=O)C1CCCCC1)Nc1ccccc1OC(F)F | inconclusive: -47.3%
52 | CC1=CC(C)(C)N(C(=O)c2ccc(F)cc2)c2cc3c(cc21)OCO3 | inconclusive: -43.4%
53 | CCOc1ccc(C(C(=O)NCC2CCCO2)N(Cc2cccs2)C(=O)c2snc(C(N)=O)c2N)cc1 (stereo not drawn) | active: -68%

16 entries from above, sorted by molecular weight, low to high:
Row | SMILES | activity change, negative = inhibition
46 | CCN(CC)CCOc1c(C)cccc1Cl | inactive: -33.4%
43 | O=C(Nc1cccc([N+](=O)[O-])c1)N1CCc2ccccc2C1 | active: -65.7%
31 | COc1ccc(NC(=O)CSc2ncn[nH]2)c([N+](=O)[O-])c1 | inconclusive: -45.2%
30 | O=C(Nc1nccs1)c1cc(-c2ccncc2)nc2ccccc12 | inactive: 5.44%
44 | COc1ccc2cc(Br)ccc2c1CC(=O)NC(C)C | inconclusive: -41.5%
41 | COc1ccc(-n2c(-c3ccc(C)cc3)nc3ccccc3c2=O)cc1 | inconclusive: -42.8%
33 | O=S(=O)(Cc1cc(Cl)nc(-c2ccncc2)n1)c1ccccc1 | active: -65.8%
35 | O=C(CCCn1c(=O)[nH]c2ccsc2c1=O)Nc1ccc(F)cc1 | inconclusive: -44.3%
47 | COC(=O)c1cccc(NC(=O)Cn2cnc3c2c(=O)n(C)c(=O)n3C)c1 | inconclusive: -46.8%
48 | Cc1ccc(C2(C)NC(=O)N(CC(=O)Nc3ccc4c(c3)CCC4)C2=O)cc1 (stereo not drawn) | inconclusive: 0%
45 | Cc1ccccc1NC(=O)CSC1=C(C#N)C(c2ccsc2)CC(=O)N1 (stereo not drawn) | active: -62.3%
36 | COc1cccc(C(=O)Nc2ccc(Oc3cccc(C(F)(F)F)c3)nc2)c1 | active: -74.4%
38 | CC(C(=O)NC(C)(C)C)N(Cc1cccs1)C(=O)CCN1CCc2ccccc21 (stereo not drawn) | inactive: 3.15%
50 | CCOc1cccc2cc(-c3nnc(NCc4ccc5c(c4)OCO5)s3)c(=O)oc12 | inconclusive: -43%
39 | COc1ccc(/C=C(\NC(=O)c2ccc(C)cc2)C(=O)Nc2c(C)n(C)n(-c3ccccc3)c2=O)cc1 | inactive: -10.1%
37 | CSc1cccc(NC(=S)N(CCCN2CCCC2)Cc2cccn2Cc2ccc(Cl)cc2)c1 | inconclusive: -49%

— PubChem BioAssay AID1259415 (National Center for Advancing Translational Sciences (NCATS), 2018)
